# No constants are given. Whether binding was seen depends on the method and setting. In cells and extracts the contact can be indirect. A yes stands for co-enrichment or nearness to the bait. Other partners may have been found.
# Protein sequences, listed by entry. Tags and fused reporters are not part of them.
# UniProt Q9BYX4: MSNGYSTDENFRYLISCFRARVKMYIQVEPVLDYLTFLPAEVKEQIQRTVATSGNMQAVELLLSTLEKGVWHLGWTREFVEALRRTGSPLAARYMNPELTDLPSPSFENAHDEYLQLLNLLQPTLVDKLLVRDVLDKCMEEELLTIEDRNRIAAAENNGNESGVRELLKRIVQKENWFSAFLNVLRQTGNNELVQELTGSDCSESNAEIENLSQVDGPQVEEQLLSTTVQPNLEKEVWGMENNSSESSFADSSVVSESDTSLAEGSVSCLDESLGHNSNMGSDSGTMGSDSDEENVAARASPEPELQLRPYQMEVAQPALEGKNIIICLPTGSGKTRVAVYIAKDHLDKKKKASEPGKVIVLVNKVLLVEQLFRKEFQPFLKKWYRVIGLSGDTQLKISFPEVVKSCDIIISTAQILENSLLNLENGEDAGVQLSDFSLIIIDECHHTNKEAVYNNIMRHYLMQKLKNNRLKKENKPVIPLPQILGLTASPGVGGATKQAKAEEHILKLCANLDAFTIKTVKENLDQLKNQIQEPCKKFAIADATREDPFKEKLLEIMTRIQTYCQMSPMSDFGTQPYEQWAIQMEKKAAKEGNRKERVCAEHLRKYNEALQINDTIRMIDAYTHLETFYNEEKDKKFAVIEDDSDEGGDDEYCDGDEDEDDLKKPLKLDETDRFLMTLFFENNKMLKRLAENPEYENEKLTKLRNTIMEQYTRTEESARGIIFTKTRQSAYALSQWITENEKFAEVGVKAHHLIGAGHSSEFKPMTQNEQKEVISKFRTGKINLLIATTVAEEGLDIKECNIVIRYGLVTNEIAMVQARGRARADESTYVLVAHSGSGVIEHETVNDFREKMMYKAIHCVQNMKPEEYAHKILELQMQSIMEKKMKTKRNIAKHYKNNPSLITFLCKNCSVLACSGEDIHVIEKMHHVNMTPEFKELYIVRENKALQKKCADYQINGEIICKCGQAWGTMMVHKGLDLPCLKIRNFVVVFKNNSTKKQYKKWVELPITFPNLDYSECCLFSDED
# UniProt P07355: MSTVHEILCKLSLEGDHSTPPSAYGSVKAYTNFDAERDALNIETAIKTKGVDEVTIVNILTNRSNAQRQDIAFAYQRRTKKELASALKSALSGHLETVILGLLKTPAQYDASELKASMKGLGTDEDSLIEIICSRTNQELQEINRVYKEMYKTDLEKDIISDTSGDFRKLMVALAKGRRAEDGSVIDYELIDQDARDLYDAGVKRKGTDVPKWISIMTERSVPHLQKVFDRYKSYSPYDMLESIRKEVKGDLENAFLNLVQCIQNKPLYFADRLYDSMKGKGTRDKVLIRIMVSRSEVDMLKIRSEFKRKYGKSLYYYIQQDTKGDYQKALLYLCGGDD
# Molecular target: Melanoma differentiation-associated protein 5 (MDA5), endogenous in THP1 cells (human (endogenous in THP1)) (UniProt Q9BYX4)
# Assay: affinity purification with mass spectrometry
substance,measurement,value
"Annexin A2 (ANXA2), endogenous in THP1 cells (from UniProt P07355 1-339)",binding,binds

# — article doi:10.1101/2025.10.28.684968
